Source: patent US9937161B2, “Combinatorial compositions and methods for treatment of melanoma” (THE GENERAL HOSPITAL CORPORATION, priority 2013, dated 2018)
For at least one compound, name, drawing or mass did not settle the structure.

Key:
KIT mutated melanoma = details: case reports, retrospective and phase II studies; cited from earlier work
[1] = test system: 8 patient-derived melanoma cell lines; assay: PGC1α mRNA after vemurafenib; assay type: cell-based; details: 1 μM, 24 h; all 8 cell lines, magnitude varied by cell line
UACC257 xenografts = assay: Xenograft tumor study; assay type: in vivo, mice; details: 2,4-DNP 20 mg/kg/day or vemurafenib 75 mg/kg/day by oral gavage
[2] = test system: melanomas with the BRAF(V600E) mutation; details: patients whose melanomas have the BRAF(V600E) mutation; cited from earlier work

SMILES	clinical responses (KIT mutated melanoma)	PGC1α mRNA [1]	tumor growth (UACC257 xenografts)	clinical outcome [2]
Cc1nc(Nc2ncc(C(=O)Nc3c(C)cccc3Cl)s2)cc(N2CCN(CCO)CC2)n1 [dasatinib]	clinical responses	–	–	–
CCN(CC)CCNC(=O)c1c(C)[nH]c(/C=C2\C(=O)Nc3ccc(F)cc32)c1C [sunitinib]	clinical responses	–	–	–
CCCS(=O)(=O)Nc1ccc(F)c(C(=O)c2c[nH]c3ncc(-c4ccc(Cl)cc4)cc23)c1F [vemurafenib]	–	induction	profoundly inhibited tumor growth, similar to the effects of PLX4032	tumor regression and improved overall survival
